# In the supplement of paper PMC8166895:
# Structures can show the parent of a compound that is named as a salt. Some of the results follow. Most entries show no effect beyond the scatter of the controls.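 A single-replicate pilot screen of approved drugs and clinical or known-target compounds measured melting temperature via differential scanning fluorimetry. Top stabilizing hits raised the melting point by 2 °C or more; negative shifts indicate destabilization.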
# Tested on: SARS-CoV-2 main protease (Mpro, nsp5)
# Assay: thermal shift ΔTm of Mpro relative to plate average Tm; higher = stronger thermal stabilization of Mpro (binding)
# Settings: 10 µM; protein concentration 1 µM
row,Structure (SMILES),thermal shift ΔTm of Mpro
1,C[C@H]1[C@@H](O)O[C@@H]2O[C@@]3(C)CC[C@H]4[C@H](C)CC[C@@H]1[C@@]24OO3 [Dihydroartemisinin (DHA)],-0.181 °C
2,O=C(Nc1nc2ccc3scnc3c2s1)c1ccc2ccccc2c1,-0.121 °C
3,CCO[C@@H]1OC(=O)C[C@@H]1NC(=O)[C@@H]1CCCN1C(=O)[C@@H](NC(=O)c1ccc(N)c(Cl)c1)C(C)(C)C,-0.0535 °C
4,O=C(CCCN1CC=C(n2c(=O)[nH]c3ccccc32)CC1)c1ccc(F)cc1 [Droperidol],-0.17 °C
5,O=C(COCC(=O)Nc1ccc(Cl)cc1C(=O)O)Nc1cccc(-c2ccoc2)c1,0.0883 °C
6,C[C@H](NC(c1cccc2[nH]c(=O)c(=O)[nH]c12)P(=O)(O)O)c1ccc(Br)cc1 (stereo partly specified),0.0719 °C
7,Fc1cccc2ccccc12 [Fluoronaphthalene],0.243 °C
8,Oc1c(I)cc(I)c2cccnc12 [Iodoquinol],0.486 °C
9,CC(=O)O[C@H]1C[C@H](O[C@H]2[C@@H](O)C[C@H](O[C@H]3[C@@H](O)C[C@H](O[C@H]4CC[C@@]5(C)[C@H](CC[C@@H]6[C@@H]5C[C@@H](O)[C@]5(C)[C@@H](C7=CC(=O)OC7)CC[C@]65O)C4)O[C@@H]3C)O[C@@H]2C)O[C@H](C)[C@H]1O[C@@H]1O[C@H](CO)[C@@H](O)[C@H](O)[C@H]1O [Lanatoside C],0.109 °C
10,CC(C)N1CCN(c2ccc(OCC3COC(Cn4cncn4)(c4ccc(Cl)cc4Cl)O3)cc2)CC1 (stereo unspecified) [Terconazole],-0.149 °C
11,CC(=O)Nc1ccc(OC[C@](C)(O)C(=O)Nc2ccc([N+](=O)[O-])c(C(F)(F)F)c2)cc1 [Andarine],-0.133 °C
12,Cc1nc(Nc2ccc(F)cc2)nc(N2CCc3ccccc3C2C)c1C (stereo unspecified) [Revaprazan hydrochloride],-0.183 °C
13,COc1ccc(CCN2CCC(Nc3nc4ccccc4n3Cc3ccc(F)cc3)CC2)cc1 [Astemizole],-0.00474 °C
14,CCN(Cc1ccncc1)C(=O)C(CO)c1ccccc1 (stereo unspecified) [Tropicamide],0.0833 °C
15,CCN(CC)CC#CCOC(=O)C(O)(c1ccccc1)C1CCCCC1 (stereo unspecified) [Oxybutynin chloride],-0.0342 °C
16,CCN(CC)CC#CCOC(=O)C(O)(c1ccccc1)C1CCCCC1 (stereo unspecified) [Oxybutynin],0.0222 °C
17,Cc1ncc([N+](=O)[O-])n1CCO [Metronidazole],0.083 °C
18,O=C(Cc1cccc(OC(F)(F)F)c1)Nc1ccc(CCCCc2nnc(NC(=O)Cc3ccccn3)s2)nn1,0.0792 °C
19,O=S(=O)(CCC(F)=C(F)F)c1ncc(Cl)s1 [Fluensulfone],-0.0145 °C
20,CC(=O)O/N=C1\C(=O)N(Cc2cc(Cl)ccc2Cl)c2ccc(Cl)cc21,0.209 °C
21,COc1ccc(COc2ccc(Cc3cnc(N)nc3N)cc2OC)cc1,-0.071 °C
22,Cc1cc([N+](=O)[O-])ccc1NS(=O)(=O)c1cc(Cl)ccc1Cl,0.986 °C
23,CCN(CC)C(=O)Cc1csc(NS(=O)(=O)c2cccc(Cl)c2C)n1,-0.0242 °C

row,Structure (SMILES),thermal shift ΔTm of Mpro
1,O=C(O)CCNc1cc(N2CCc3ccccc3CC2)nc(-c2ccccn2)n1,-0.232 °C
2,COc1cnc(-n2cnc(C)n2)c2c1c(C(=O)C(=O)N1CCN(C(=O)c3ccccc3)CC1)cn2COP(=O)(O)O [Fostemsavir],-0.0843 °C
3,C=CC[C@@H]1/C=C(\C)C[C@H](C)C[C@H](OC)[C@H]2O[C@@](O)(C(=O)C(=O)N3CCCC[C@H]3C(=O)O[C@H](/C(C)=C/[C@@H]3CC[C@@H](O)[C@H](OC)C3)[C@H](C)[C@@H](O)CC1=O)[C@H](C)C[C@@H]2OC [Tacrolimus (FK506)],-0.144 °C
4,CN(C)Cc1cccc(N=C(c2ccccc2)c2c(O)[nH]c3cc(C(N)=O)ccc23)c1,-0.0811 °C
5,O=C(N/N=C/c1ccc(O)c(O)c1)c1cc2ccccc2cc1O [Dynasore],0.849 °C
6,Cc1ccc(C(=O)c2cc(O)c(O)c([N+](=O)[O-])c2)cc1 [Tolcapone],0.887 °C
7,CC(C)(C)[Si](C)(C)Oc1ccc2oc(=O)c3c(c2c1)CCCN3,-0.0127 °C
8,O=C([O-])c1ccccc1O.[Na+] [Sodium salicylate],0.068 °C
9,COc1ccc2[nH]cc(CCNC(C)=O)c2c1 [Melatonin],0.184 °C
10,Nc1nc(F)nc2c1ncn2[C@@H]1O[C@H](CO)[C@@H](O)[C@@H]1O [Fludarabine],0.671 °C
11,CC(=O)N1c2ccc(-c3ccc(C(=O)O)cc3)cc2[C@H](Nc2ccc(Cl)cc2)C[C@@H]1C,-0.273 °C
12,CC[C@H]1OC(=O)[C@H](C)[C@@H](O[C@H]2C[C@@](C)(OC)[C@@H](O)[C@H](C)O2)[C@H](C)[C@@H](O[C@@H]2O[C@H](C)C[C@H](N(C)C)[C@H]2O)[C@](C)(O)C[C@@H](C)/C(=N\OCOCCOC)[C@H](C)[C@@H](O)[C@]1(C)O [Roxithromycin],0.0857 °C
13,CC(=O)c1cnc2ccc(-c3cc(Cl)c(O)c(Cl)c3)nc2c1N[C@H]1CC[C@H](CN(C)C)CC1,0.0382 °C
14,O=C(O)c1ccc(Cl)cc1O [4-Chlorosalicylic acid],0.169 °C
15,C=C1CC[C@H](O)C/C1=C/C=C1\CCC[C@]2(C)[C@@H]([C@H](C)CCCC(C)(C)O)CC[C@@H]12 [Calcifediol],0.00242 °C
16,CC(C)CC(=O)Nc1n[nH]c2c1CN(C(=O)C1CCN(C)CC1)C2(C)C,0.557 °C
17,O=C(NCCS(=O)(=O)c1ccc(C(F)(F)F)cn1)c1ccc(Cl)cc1,-0.18 °C
18,CN1CC[C@H](c2c(O)cc(O)c3c(=O)cc(-c4ccccc4Cl)oc23)[C@H](O)C1 [Flavopiridol HCl],-0.0734 °C
19,CN1CC[C@H](c2c(O)cc(O)c3c(=O)cc(-c4ccccc4Cl)oc23)[C@H](O)C1 [Flavopiridol (Alvocidib)],0.0861 °C
20,COc1cc(S(=O)(=O)O)ccc1O [Sulfogaiacol],0.258 °C
21,COc1ccc(-c2cc(=O)c3c(O)cc(O)cc3o2)cc1O [Diosmetin],0.36 °C
22,Nc1nc(Cl)nc2c1ncn2[C@@H]1O[C@H](CO)[C@@H](O)[C@@H]1F [Clofarabine],0.255 °C
23,CC(C)C(=O)OCC(=O)[C@@]12O[C@H](C3CCCCC3)O[C@@H]1C[C@H]1[C@@H]3CCC4=CC(=O)C=C[C@]4(C)[C@H]3[C@@H](O)C[C@@]12C [Ciclesonide],-0.386 °C

# Looked up above.
# thermal shift ΔTm of Mpro with CN1CC[C@H](c2c(O)cc(O)c3c(=O)cc(-c4ccccc4Cl)oc23)[C@H](O)C1 [Flavopiridol HCl] reads -0.0734 °C
# thermal shift ΔTm of Mpro with COc1cnc(-n2cnc(C)n2)c2c1c(C(=O)C(=O)N1CCN(C(=O)c3ccccc3)CC1)cn2COP(=O)(O)O [Fostemsavir] reads -0.0843 °C
